Measurements from publication PMC7862700.
This is a selection; strong and weak results do not stand in their true shares. The list shows a part of the results. For part of these data: The source does not settle which construct or isoform was used.

Biological target: T1, ETV4 (UniProt P43268)
T1 sequence: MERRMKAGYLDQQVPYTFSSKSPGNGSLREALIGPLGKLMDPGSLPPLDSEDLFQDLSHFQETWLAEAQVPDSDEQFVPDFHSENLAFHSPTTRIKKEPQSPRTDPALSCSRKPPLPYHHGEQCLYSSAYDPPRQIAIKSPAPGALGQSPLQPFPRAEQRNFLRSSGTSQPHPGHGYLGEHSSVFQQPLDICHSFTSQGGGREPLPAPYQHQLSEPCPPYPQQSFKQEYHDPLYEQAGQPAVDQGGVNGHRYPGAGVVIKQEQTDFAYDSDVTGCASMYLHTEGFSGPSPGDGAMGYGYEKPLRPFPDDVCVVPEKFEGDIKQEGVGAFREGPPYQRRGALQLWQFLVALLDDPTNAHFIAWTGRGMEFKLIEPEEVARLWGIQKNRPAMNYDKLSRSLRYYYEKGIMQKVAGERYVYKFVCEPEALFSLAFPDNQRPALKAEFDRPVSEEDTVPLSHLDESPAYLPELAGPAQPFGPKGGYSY
Assay: DAPPL (digital affinity profiling via proximity ligation, sequencing)
Conditions: 10 mM Tris-HCl pH 7.5, 50 mM NaCl, 1 mM DTT, 4% glycerol, room temperature, 30 min; GST-TFs on glutathione beads, 16-mer random dsDNA library, 0.1% …; high values mean tight binding; double strand, one strand shown; scale: fold enrichment (6-mer frequency, TF over GST control)

Sequence	binding signal
ATCCGC	1.81
GATCTT	1.26
CCTTGG	1.34
CTTCAG	1.26
AAATTG	1.25
TACGCT	1.32
TTTACA	1.24
GCAAAA	1.07
AAACGG	1.2
CTCTGA	1.22
CTAAGT	1.18
ACAAGC	1.09
ACCCCG	1.17
TTGATG	1.69
CCAAAA	1.17
CGACGT	1.11
GTAAAC	1.22
AACCAA	1.3
TTCCTG	2.3
TGACGA	1.1

Sequence	binding signal
TGGTCT	1.73
CTTGCA	1.37
AGCTCC	1.35
CGATAA	1.1
CATTTA	1.14
GTAACA	1.1
GCCCTT	1.25
TCAACC	1.11
CTACTC	1.4
ATGTTC	1.27
TAAAAG	1.13
GAAAAG	1.03
AATGGG	1.15
TCTTGT	1.72
ATTTGA	1.27
TTATGT	1.22
CGCTCA	1.21
ACTGCG	1.27
TCGACC	1.3

Biological target: T2, ERF (UniProt P50548)
T2 sequence: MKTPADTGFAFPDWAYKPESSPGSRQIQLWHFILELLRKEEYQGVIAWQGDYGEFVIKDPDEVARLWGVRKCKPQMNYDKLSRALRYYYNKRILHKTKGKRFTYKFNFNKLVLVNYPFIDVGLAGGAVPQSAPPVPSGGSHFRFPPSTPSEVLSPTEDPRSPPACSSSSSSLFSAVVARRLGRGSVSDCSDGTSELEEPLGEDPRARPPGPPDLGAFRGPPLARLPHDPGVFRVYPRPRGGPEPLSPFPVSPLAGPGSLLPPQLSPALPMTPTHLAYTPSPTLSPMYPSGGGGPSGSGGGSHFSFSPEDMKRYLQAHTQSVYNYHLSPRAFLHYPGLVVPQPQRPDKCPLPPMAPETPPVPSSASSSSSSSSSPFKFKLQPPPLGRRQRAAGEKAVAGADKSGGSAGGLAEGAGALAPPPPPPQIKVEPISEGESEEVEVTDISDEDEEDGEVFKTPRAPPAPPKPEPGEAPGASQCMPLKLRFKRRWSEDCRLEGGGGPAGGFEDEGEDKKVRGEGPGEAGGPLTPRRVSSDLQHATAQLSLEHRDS
Assay: as above
Conditions: 10 mM Tris-HCl pH 7.5, 50 mM NaCl, 1 mM DTT, 4% glycerol, room temperature, 30 min; GST-TFs on glutathione beads, 16-mer random dsDNA library, 0.1% …; high values mean tight binding; double strand, one strand shown; scale: fold enrichment (6-mer frequency, TF over GST control)

Sequence	binding signal
ATCCGC	1.71
GATCTT	1.15
CCTTGG	1.23
CTTCAG	1.27
AAATTG	1.3
TACGCT	1.4
TTTACA	1.28
GCAAAA	1.14
AAACGG	1.17
CTCTGA	1.22
CTAAGT	1.13
ACAAGC	1.15
ACCCCG	1.26
TTGATG	1.66
CCAAAA	1.16
CGACGT	1.17
GTAAAC	1.27
AACCAA	1.25
TTCCTG	1.87
TGACGA	1.14

Sequence	binding signal
TGGTCT	1.52
CTTGCA	1.39
AGCTCC	1.24
CGATAA	1.11
CATTTA	1.23
GTAACA	1.1
GCCCTT	1.11
TCAACC	1.3
CTACTC	1.48
ATGTTC	1.27
TAAAAG	1.2
GAAAAG	1
AATGGG	1.16
TCTTGT	1.68
ATTTGA	1.14
TTATGT	1.29
CGCTCA	1.2
ACTGCG	1.26
TCGACC	1.31
